Like-named read-outs stand apart in the source and are kept apart here. Results are given in words; binding and its absence hold for the method and conditions named. In cells and extracts the contact can be indirect. Some binding calls cover weakened binding; strength is not graded here.

Amino acid sequences for entries named in this document (tags omitted). A change or cut given only in a name is not applied to a line headed by its entry. Residues count along the entry.
UniProt Q13485: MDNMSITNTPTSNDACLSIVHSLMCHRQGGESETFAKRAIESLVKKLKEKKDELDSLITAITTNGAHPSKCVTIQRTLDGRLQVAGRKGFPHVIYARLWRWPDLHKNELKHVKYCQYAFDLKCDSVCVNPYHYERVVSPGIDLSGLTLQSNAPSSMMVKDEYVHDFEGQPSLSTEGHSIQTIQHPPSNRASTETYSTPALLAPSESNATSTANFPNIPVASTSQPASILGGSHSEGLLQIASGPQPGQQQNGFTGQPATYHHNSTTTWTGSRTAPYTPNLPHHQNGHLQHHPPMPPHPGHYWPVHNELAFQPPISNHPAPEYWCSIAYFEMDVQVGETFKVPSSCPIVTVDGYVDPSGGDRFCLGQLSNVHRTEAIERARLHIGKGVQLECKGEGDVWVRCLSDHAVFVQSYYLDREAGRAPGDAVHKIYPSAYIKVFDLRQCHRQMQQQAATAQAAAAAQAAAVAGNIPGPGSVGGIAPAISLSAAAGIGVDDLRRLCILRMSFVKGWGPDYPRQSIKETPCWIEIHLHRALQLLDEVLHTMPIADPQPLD
UniProt P19838, residues 1-433: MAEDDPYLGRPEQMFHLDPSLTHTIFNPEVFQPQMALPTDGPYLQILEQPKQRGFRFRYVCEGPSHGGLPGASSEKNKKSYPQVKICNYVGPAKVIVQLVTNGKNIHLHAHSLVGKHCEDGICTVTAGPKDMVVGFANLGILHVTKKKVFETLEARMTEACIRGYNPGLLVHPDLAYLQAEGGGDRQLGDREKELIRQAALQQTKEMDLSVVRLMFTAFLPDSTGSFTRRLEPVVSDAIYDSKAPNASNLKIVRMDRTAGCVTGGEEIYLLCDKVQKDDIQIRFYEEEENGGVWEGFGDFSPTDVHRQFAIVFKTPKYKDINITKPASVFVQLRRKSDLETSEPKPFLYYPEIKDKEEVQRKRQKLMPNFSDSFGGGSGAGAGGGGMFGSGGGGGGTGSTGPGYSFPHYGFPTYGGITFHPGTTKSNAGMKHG
UniProt Q04206: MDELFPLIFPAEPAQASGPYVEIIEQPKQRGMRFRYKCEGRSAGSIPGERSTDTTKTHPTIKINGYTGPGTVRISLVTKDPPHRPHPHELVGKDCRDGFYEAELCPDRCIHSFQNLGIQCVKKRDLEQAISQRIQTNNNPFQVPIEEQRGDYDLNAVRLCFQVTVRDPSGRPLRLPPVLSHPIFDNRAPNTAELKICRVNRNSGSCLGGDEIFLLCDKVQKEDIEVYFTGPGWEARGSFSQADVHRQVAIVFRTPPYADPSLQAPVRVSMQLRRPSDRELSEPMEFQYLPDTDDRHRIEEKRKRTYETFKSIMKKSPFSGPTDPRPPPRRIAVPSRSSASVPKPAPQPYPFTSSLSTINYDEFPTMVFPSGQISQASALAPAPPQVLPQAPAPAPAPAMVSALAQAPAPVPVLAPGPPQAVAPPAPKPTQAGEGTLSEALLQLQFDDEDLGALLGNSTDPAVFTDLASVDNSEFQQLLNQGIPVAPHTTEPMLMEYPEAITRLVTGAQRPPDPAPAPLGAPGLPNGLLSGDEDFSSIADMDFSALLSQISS

The record followed here is article PMC9489697.

Test in all cases: co-IP; lysates of BxPC3-EV, BxPC3-WT and BxPC3-Mut stably transfected cells, with or without DTLL induction; precipitated with SMAD4 antibody (rabbit normal IgG as control) at 4 °C overnight, protein A/G agarose beads; Western blot of the eluates
In general terms: Immunoblotting shows a protein as a band on a membrane.

Experiment [1] concerns the target wild-type SMAD4 (mothers against decapentaplegic homolog 4) (human) (UniProt Q13485).
Experiment [2] concerns the target mutant SMAD4 (R100T) (human) (UniProt Q13485).
Experiment [3] has as its target wild-type SMAD4 (mothers against decapentaplegic homolog 4) (human) (UniProt Q13485). The source holds these as a separate data set.
The target of experiment [4] is mutant SMAD4 (R100T) (human) (UniProt Q13485). The source holds these as a separate data set.

Take “P50 unit of NF-κB (from UniProt P19838 1-433)”: the binding result in experiment [1] and in experiment [2] was “binds” in each case.
Regarding “P65 unit of NF-κB (from UniProt Q04206 1-551)”, the binding entry in experiment [1] and in experiment [2] was “binds” each time.

B1: TRIM33 (enzyme, UniProt Q9UPN9 1-1127)
chain: MAENKGGGEAESGGGGSGSAPVTAGAAGPAAQEAEPPLTAVLVEEEEEEGGRAGAEGGAAGPDDGGVAAASSGSAQAASSPAASVGTGVAGGAVSTPAPAPASAPAPGPSAGPPPGPPASLLDTCAVCQQSLQSRREAEPKLLPCLHSFCLRCLPEPERQLSVPIPGGSNGDIQQVGVIRCPVCRQECRQIDLVDNYFVKDTSEAPSSSDEKSEQVCTSCEDNASAVGFCVECGEWLCKTCIEAHQRVKFTKDHLIRKKEDVSESVGASGQRPVFCPVHKQEQLKLFCETCDRLTCRDCQLLEHKEHRYQFLEEAFQNQKGAIENLLAKLLEKKNYVHFAATQVQNRIKEVNETNKRVEQEIKVAIFTLINEINKKGKSLLQQLENVTKERQMKLLQQQNDITGLSRQVKHVMNFTNWAIASGSSTALLYSKRLITFQLRHILKARCDPVPAANGAIRFHCDPTFWAKNVVNLGNLVIESKPAPGYTPNVVVGQVPPGTNHISKTPGQINLAQLRLQHMQQQVYAQKHQQLQQMRMQQPPAPVPTTTTTTQQHPRQAAPQMLQQQPPRLISVQTMQRGNMNCGAFQAHQMRLAQNAARIPGIPRHSGPQYSMMQPHLQRQHSNPGHAGPFPVVSVHNTTINPTSPTTATMANANRGPTSPSVTAIELIPSVTNPENLPSLPDIPPIQLEDAGSSSLDNLLSRYISGSHLPPQPTSTMNPSPGPSALSPGSSGLSNSHTPVRPPSTSSTGSRGSCGSSGRTAEKTSLSFKSDQVKVKQEPGTEDEICSFSGGVKQEKTEDGRRSACMLSSPESSLTPPLSTNLHLESELDALASLENHVKIEPADMNESCKQSGLSSLVNGKSPIRSLMHRSARIGGDGNNKDDDPNEDWCAVCQNGGDLLCCEKCPKVFHLTCHVPTLLSFPSGDWICTFCRDIGKPEVEYDCDNLQHSKKGKTAQGLSPVDQRKCERLLLYLYCHELSIEFQEPVPASIPNYYKIIKKPMDLSTVKKKLQKKHSQHYQIPDDFVADVRLIFKNCERFNEMMKVVQVYADTQEINLKADSEVAQAGKAVALYFEDKLTEIYSDRTFAPLPEFEQEEDDGEVTEDSDEDFIQPRRKRLKSDERPVHIK
Take B1: the binding result in experiment [3] and in experiment [4] was “binds” in each case.
